Reference: the supplement of paper PMC10060354, “Discovery of a small molecule ligand of FRS2 that inhibits invasion and tumor growth” (Cellular Oncology, 2022)
Repeats are few or missing, and single values can be far off.

The chains behind the UniProt entries cited, without tags or fusion partners. Where a name states a change or a piece, a line headed by the entry shows the natural chain unless it says otherwise.
UniProt Q5TA45, whole entry: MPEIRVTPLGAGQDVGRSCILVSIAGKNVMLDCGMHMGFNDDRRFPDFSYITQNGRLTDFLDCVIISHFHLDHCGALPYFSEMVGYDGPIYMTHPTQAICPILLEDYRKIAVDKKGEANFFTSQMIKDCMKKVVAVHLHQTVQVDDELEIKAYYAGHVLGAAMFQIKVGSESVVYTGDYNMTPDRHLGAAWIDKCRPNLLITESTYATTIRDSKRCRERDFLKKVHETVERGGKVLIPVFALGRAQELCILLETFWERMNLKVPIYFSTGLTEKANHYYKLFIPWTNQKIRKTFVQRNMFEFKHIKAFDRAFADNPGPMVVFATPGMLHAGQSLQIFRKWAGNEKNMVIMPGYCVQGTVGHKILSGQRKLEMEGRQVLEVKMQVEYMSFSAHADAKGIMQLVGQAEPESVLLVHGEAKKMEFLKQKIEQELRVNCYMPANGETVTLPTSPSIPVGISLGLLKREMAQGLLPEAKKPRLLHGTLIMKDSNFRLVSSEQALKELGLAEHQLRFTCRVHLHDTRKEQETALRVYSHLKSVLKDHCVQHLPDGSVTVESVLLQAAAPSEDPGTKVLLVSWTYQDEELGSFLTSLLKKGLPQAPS
UniProt O95359: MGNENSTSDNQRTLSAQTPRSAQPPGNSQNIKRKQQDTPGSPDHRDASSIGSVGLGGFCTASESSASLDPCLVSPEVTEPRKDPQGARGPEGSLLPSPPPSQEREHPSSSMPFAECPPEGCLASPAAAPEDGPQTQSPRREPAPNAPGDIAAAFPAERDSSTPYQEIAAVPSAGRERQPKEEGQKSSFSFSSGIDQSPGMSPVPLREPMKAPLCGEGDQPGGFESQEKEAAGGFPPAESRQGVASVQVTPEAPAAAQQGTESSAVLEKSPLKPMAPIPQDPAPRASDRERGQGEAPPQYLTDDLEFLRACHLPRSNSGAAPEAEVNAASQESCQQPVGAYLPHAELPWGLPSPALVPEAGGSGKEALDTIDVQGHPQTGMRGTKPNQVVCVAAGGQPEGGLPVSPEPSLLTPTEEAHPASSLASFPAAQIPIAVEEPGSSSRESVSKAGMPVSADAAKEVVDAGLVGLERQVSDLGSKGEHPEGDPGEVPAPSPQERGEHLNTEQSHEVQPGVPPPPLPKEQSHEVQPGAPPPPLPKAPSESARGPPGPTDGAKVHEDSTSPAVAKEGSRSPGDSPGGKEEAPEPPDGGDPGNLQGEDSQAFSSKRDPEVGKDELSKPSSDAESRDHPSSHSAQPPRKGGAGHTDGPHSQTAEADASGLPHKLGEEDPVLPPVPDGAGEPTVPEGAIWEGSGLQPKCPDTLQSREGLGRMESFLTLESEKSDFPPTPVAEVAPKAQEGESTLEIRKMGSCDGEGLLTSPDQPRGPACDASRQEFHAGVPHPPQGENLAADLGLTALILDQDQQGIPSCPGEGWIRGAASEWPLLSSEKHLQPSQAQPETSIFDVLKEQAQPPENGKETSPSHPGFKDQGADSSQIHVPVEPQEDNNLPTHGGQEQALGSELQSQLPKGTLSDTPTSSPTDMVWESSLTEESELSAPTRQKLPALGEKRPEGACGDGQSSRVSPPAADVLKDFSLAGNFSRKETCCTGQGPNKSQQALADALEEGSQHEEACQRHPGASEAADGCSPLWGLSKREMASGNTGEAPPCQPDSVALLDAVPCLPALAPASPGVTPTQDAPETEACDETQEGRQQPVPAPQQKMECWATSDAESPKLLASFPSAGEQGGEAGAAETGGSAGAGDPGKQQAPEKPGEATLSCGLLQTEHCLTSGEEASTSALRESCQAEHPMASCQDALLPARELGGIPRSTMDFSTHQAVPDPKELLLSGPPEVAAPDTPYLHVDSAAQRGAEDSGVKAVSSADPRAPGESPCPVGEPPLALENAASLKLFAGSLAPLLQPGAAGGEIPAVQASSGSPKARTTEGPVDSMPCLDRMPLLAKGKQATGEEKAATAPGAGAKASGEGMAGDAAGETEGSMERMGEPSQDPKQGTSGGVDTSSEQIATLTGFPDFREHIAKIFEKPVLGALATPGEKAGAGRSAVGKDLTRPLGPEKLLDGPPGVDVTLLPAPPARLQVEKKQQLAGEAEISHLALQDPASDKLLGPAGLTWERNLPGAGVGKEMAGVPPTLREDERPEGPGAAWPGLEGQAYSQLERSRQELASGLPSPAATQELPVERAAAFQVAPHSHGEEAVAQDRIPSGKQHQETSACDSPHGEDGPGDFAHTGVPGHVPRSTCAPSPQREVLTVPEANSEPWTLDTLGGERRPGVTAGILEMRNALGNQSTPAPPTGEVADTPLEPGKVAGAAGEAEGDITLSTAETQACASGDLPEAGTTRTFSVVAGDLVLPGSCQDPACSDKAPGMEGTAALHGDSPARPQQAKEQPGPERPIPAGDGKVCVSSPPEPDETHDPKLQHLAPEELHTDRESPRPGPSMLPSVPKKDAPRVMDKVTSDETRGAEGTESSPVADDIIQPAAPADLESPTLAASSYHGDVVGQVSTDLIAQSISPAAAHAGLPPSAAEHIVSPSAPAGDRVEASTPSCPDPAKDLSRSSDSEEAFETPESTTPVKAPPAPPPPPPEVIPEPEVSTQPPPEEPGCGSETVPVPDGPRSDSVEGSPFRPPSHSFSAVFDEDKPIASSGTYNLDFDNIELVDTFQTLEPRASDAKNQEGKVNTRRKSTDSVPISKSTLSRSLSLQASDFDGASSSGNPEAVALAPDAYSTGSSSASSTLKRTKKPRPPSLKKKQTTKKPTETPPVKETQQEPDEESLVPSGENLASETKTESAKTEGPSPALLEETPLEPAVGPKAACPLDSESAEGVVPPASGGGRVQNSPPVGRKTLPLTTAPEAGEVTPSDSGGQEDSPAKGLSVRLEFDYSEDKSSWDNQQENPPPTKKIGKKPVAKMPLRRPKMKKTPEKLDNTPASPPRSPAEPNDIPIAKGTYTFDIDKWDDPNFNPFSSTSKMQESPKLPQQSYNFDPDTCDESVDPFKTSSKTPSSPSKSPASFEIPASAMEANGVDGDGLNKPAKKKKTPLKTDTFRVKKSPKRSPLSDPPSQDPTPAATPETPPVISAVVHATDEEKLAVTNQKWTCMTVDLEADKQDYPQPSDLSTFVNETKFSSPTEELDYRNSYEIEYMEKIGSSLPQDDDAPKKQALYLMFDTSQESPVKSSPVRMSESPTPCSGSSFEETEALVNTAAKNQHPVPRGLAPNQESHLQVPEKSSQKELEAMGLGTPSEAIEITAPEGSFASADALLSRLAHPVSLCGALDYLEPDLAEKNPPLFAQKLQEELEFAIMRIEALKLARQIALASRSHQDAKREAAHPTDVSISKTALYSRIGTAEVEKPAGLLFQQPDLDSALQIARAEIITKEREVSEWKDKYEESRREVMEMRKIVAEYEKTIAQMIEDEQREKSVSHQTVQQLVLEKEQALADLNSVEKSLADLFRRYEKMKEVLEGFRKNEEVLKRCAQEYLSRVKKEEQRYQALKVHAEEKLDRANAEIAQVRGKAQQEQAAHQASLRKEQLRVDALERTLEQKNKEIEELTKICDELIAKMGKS
UniProt Q96J02: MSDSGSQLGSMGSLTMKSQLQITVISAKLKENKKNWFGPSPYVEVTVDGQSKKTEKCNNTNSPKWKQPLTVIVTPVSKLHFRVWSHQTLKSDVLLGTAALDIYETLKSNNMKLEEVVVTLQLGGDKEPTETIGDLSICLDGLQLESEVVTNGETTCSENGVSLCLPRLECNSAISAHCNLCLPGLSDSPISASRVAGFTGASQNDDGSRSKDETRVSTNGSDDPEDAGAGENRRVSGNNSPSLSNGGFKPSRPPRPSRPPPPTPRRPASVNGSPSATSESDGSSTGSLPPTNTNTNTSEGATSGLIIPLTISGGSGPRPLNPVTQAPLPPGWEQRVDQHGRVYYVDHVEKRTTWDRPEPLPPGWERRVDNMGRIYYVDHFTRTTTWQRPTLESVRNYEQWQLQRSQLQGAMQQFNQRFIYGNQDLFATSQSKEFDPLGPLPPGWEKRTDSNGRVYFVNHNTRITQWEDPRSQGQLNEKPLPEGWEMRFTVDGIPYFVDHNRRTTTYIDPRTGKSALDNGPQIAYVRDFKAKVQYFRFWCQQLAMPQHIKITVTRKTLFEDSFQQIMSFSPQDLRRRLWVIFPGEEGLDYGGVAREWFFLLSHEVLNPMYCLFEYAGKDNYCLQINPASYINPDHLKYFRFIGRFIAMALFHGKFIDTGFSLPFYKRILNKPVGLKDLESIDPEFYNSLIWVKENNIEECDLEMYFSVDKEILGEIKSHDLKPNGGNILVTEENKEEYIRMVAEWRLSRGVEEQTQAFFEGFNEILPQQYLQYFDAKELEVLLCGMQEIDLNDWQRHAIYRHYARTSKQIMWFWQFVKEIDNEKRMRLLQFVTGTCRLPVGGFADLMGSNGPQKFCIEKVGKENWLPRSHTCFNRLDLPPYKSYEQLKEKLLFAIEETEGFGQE
UniProt Q9Y3D2: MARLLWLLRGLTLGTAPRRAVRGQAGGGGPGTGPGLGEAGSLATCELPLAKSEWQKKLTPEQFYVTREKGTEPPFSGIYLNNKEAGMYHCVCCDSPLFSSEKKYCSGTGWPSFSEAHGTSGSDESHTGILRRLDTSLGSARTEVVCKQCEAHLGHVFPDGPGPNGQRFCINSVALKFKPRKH
UniProt Q15833: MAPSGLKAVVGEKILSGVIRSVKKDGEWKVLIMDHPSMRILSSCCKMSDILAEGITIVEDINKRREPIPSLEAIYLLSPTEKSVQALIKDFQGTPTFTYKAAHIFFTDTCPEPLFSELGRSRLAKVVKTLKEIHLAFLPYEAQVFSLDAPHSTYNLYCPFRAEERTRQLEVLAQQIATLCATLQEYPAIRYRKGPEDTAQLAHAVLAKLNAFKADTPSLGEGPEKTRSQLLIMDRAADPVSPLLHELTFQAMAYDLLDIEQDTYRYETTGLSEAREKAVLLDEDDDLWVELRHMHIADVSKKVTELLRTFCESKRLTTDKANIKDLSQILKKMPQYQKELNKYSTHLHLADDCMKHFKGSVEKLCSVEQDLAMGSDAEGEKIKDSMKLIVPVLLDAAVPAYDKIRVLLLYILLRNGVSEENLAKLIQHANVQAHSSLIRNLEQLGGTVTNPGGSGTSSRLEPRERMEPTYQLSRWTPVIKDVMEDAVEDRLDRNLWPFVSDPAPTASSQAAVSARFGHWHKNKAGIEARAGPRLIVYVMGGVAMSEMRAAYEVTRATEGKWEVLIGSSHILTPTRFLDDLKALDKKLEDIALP
UniProt Q15185: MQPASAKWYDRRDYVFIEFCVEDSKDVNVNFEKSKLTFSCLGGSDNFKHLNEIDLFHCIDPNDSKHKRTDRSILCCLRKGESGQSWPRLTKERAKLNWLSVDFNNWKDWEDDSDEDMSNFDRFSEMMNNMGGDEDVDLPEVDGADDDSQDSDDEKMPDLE
UniProt Q8WUW1: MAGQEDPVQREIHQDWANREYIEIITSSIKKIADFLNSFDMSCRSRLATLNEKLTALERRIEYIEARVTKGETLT
UniProt Q9BQ24: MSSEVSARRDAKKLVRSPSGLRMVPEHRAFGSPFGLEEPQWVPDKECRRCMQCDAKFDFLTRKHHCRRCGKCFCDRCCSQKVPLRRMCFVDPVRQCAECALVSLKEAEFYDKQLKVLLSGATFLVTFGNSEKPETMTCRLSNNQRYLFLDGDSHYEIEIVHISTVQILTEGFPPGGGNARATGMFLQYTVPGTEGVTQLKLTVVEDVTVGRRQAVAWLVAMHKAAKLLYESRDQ
UniProt Q2TAA2: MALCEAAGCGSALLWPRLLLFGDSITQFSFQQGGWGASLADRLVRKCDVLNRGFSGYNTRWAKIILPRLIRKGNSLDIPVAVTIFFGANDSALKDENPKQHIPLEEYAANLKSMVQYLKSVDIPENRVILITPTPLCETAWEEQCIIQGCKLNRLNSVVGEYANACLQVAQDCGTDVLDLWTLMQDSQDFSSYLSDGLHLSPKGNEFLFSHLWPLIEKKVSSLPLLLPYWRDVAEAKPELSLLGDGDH
UniProt Q04695: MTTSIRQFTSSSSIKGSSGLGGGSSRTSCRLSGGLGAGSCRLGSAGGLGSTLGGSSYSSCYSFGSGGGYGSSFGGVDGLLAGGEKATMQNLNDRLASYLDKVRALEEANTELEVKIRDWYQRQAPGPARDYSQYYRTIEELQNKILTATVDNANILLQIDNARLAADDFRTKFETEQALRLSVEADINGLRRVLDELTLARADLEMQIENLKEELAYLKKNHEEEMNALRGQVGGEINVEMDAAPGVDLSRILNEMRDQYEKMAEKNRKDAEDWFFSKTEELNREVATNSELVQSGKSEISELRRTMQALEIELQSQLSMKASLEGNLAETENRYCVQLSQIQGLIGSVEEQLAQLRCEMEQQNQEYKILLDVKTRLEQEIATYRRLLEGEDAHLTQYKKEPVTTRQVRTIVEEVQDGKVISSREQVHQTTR
UniProt Q6I9Y2: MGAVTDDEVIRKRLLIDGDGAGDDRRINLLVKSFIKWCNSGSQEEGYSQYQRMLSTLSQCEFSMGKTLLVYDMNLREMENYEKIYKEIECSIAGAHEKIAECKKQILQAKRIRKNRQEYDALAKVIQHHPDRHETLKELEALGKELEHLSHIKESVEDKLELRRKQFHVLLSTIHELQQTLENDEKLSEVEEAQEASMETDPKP

Compound: [O-][N+](C(C1=C(C(O)=C2)NC(C(C=C3)=CC=C3Cl)C4C1C=CC4)=C2Cl)=O
Assay: melting temperature shift (compound 7 minus DMSO); higher = compound stabilises the protein
Details: 10 µM
Procedure: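 Thermal proteome profiling (TMT mass spectrometry) in intact DAOY medulloblastoma cells or DAOY lysates treated with 10 µM compound 7 or DMSO, heated at 10 temperatures from 40.5 to 73.8 °C for 3 min. Melting curves were fitted with the Bioconductor TPP package, and the melting point difference between compound and vehicle is reported per protein (single curve per condition).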

[1] = system: intact DAOY cells, treatment time: 90 min, 37 °C
[2] = system: DAOY cell lysate, treatment time: 20 min, 4 °C

Row | Target | melting temperature shift [1] [°C] | melting temperature shift [2] [°C]
1 | UniProt Q8N4C6 | -0.758 | 
2 | SREK1 (UniProt Q8WXA9) | -1.23 | 0.614
3 | BTBD1 (UniProt Q9H0C5) |  | -0.0429
4 | BYSL (UniProt Q13895) | 0.142 | -0.271
5 | NOA1 (UniProt Q8NC60) |  | -0.417
6 | HSPA12A (UniProt O43301) |  | -0.382
7 | CKAP4 (UniProt Q07065) | 1.09 | 1.51
8 | RWDD4 (UniProt Q6NW29) | -1.25 | 0.0316
9 | PSPC1 (UniProt Q8WXF1) | -0.384 | -0.213
10 | UniProt E7EU14 | 0.49 | 
11 | EIF5 (UniProt P55010) | -0.643 | 0.191
12 | POLR2G (UniProt P62487) | 1.84 | -0.264
13 | CPSF3L (UniProt Q5TA45) | 1.2 | -0.622
14 | MED1 (UniProt Q15648) | 2.13 | -0.672
15 | PODXL (UniProt O00592) |  | 1.66
16 | EMC8 (UniProt O43402) | -0.263 | 1.26
17 | SLC6A6 (UniProt P31641) | -2.58 | 
18 | ACTR3 (UniProt P61158) | -0.0201 | -0.898
19 | PLEC (UniProt Q15149) | 1.94 | 
20 | CPPED1 (UniProt Q9BRF8) | -0.542 | 
21 | ELOVL1 (UniProt Q9BW60) | -2.99 | 3.35
22 | OAT (UniProt P04181) | -1.28 | -0.379
23 | MCCC1 (UniProt Q96RQ3) | 0.751 | -3.37

Row | Target | melting temperature shift [1] [°C] | melting temperature shift [2] [°C]
24 | UniProt Q9UDX5 | -2.78 | -4.52
25 | KIF5B (UniProt P33176) | -0.465 | -0.13
26 | PIK3CA (UniProt P42336) | -0.491 | 0.203
27 | TACC2 (UniProt O95359) |  | 2.6
28 | WDR47 (UniProt O94967) | 0.737 | -0.926
29 | UniProt P09104 |  | -0.918
30 | PFAS (UniProt O15067) | 0.664 | -0.159
31 | ITCH (UniProt Q96J02) | 0.751 | 0.271
32 | ENO1 (UniProt P06733) | -0.406 | -0.32
33 | EXOC6B (UniProt Q9Y2D4) | -0.448 | -1.66
34 | PPP1CA (UniProt P62136) | 0.319 | -0.379
35 | GID8 (UniProt Q9NWU2) | -0.316 | -1.19
36 | POLR1A (UniProt O95602) | 0.421 | 0.33
37 | WBSCR22 (UniProt O43709) | -0.483 | 0.221
38 | SF3A3 (UniProt Q12874) | 0.458 | 0.273
39 | UniProt Q9UJQ1 | 0.322 | 
40 | FH (UniProt P07954) | -0.285 | 0.175
41 | PPP1CC (UniProt P36873) | -0.649 | 1.13
42 | UniProt O15162 | -1.58 | 1.71
43 | SPTAN1 (UniProt Q13813) | 0.749 | -0.0965
44 | FPGT (UniProt O14772) |  | 0.354
45 | UniProt P14406 | -0.0671 | 1.77
46 | CBX5 (UniProt P45973) | 0.877 | 0.823

Row | Target | melting temperature shift [1] [°C] | melting temperature shift [2] [°C]
47 | EIF1AX (UniProt P47813) | -0.304 | -0.827
48 | UniProt Q9NRJ5 | -1.28 | 
49 | IST1 (UniProt P53990) | -0.678 | -0.226
50 | MTX2 (UniProt O75431) | 1.25 | 0.587
51 | UniProt Q9Y3D2 | -1.89 | 
52 | ASPSCR1 (UniProt Q9BZE9) | -0.797 | -0.269
53 | STXBP2 (UniProt Q15833) | 0.24 | -0.619
54 | FBXO3 (UniProt Q9UK99) | -0.536 | 
55 | HAUS7 (UniProt Q99871) |  | 3.13
56 | PTGES3 (UniProt Q15185) | 0.104 | -0.177
57 | UniProt Q562R1 | 4.81 | -1.75
58 | PDXP (UniProt Q96GD0) | -0.296 | -3.92
59 | UniProt P0DME0 | 1.75 | 
60 | SAP30BP (UniProt Q9UHR5) | -1.02 | 
61 | TMEM43 (UniProt Q9BTV4) | 0.0852 | -0.374
62 | UniProt P48060 | -0.217 | 1.58
63 | TNPO2 (UniProt O14787) | -0.0681 | -0.642
64 | UniProt P62308 | -0.839 | -0.159
65 | UniProt B5ME19 | -0.185 | 
66 | GALNT7 (UniProt Q86SF2) | -1.04 | 0.965
67 | UniProt Q8WUW1 | 2.09 | -0.878
68 | C9ORF40 (UniProt Q8IXQ3) |  | 2.97
69 | SLC25A32 (UniProt Q9H2D1) | -2.04 | 0.476

Record cards (already shown).
FPGT (UniProt O14772) reads melting temperature shift [2] [°C] = 0.354
PIK3CA (UniProt P42336) reads melting temperature shift [1] [°C] = -0.491; melting temperature shift [2] [°C] = 0.203
EIF5 (UniProt P55010) reads melting temperature shift [1] [°C] = -0.643; melting temperature shift [2] [°C] = 0.191
C9ORF40 (UniProt Q8IXQ3) reads melting temperature shift [2] [°C] = 2.97

The list goes on:

Row | Target | melting temperature shift [1] [°C] | melting temperature shift [2] [°C]
70 | UniProt Q92484 |  | -0.157
71 | UBE4B (UniProt O95155) | 0.825 | -0.212
72 | UniProt Q9BQ24 |  | 4.29
73 | IAH1 (UniProt Q2TAA2) | 0.378 | 
74 | RPS12 (UniProt P25398) | -1.19 | 0.276
75 | TTC1 (UniProt Q99614) |  | -3.41
76 | UniProt Q04695 | 13.8 | 
77 | CXADR (UniProt P78310) |  | -3.36
78 | PM20D2 (UniProt Q8IYS1) |  | 3.59
79 | UniProt Q9C0A0 | 0.592 | 
80 | SRSF3 (UniProt P84103) | -0.0529 | 0.532
81 | GTF2H1 (UniProt P32780) |  | 0.0329
82 | WLS (UniProt Q5T9L3) | -0.843 | 0.17
83 | PHF23 (UniProt Q9BUL5) | 0.229 | 2.14
84 | UniProt O94805 | 2.38 | 
85 | ATP9A (UniProt O75110) |  | -1.4
86 | TNNI3K (UniProt Q59H18) | -1.81 | 
87 | ACP2 (UniProt P11117) | -1.05 | 1.16
88 | UniProt O94885 |  | -5.53
89 | THOC7 (UniProt Q6I9Y2) | 2.47 | 0.102
90 | UQCC1 (UniProt Q9NVA1) |  | 0.541
91 | DDB1 (UniProt Q16531) | 0.154 | -0.29
92 | NOSIP (UniProt Q9Y314) | -1.07 | 0.123

Row | Target | melting temperature shift [1] [°C] | melting temperature shift [2] [°C]
93 | LPCAT4 (UniProt Q643R3) | -2.81 | 3.95
94 | DDX21 (UniProt Q9NR30) | -0.321 | 0.842
95 | ATF6 (UniProt P18850) | -0.438 | 
96 | UniProt P31323 | -1.36 | -0.301
97 | GTF3C2 (UniProt Q8WUA4) |  | 6.41
98 | CDKAL1 (UniProt Q5VV42) | -0.856 | 1.74
99 | MTR (UniProt Q99707) | 0.574 | -0.672
100 | CXORF38 (UniProt Q8TB03) | -0.282 | -0.665
101 | GRAMD3 (UniProt Q96HH9) | -1.43 | 
102 | AFTPH (UniProt Q6ULP2) | -0.033 | 2.19
103 | TCOF1 (UniProt Q13428) |  | -0.13
104 | STX4 (UniProt Q12846) | -0.127 | 2.22
105 | WDR4 (UniProt P57081) | -0.0605 | 0.679
106 | MSH3 (UniProt P20585) | 0.407 | -1.43
107 | UQCRB (UniProt P14927) |  | 1.11
108 | M6PR (UniProt P20645) |  | 3.01
109 | TBCE (UniProt Q15813) | 0.536 | -0.662
110 | PSMD13 (UniProt Q9UNM6) | -1.15 | -0.673
111 | NCKIPSD (UniProt Q9NZQ3) | 0.119 | 0.87
112 | UniProt P27361 | -0.204 | 0.126
113 | UniProt Q6ISB3 | 0.352 | 
114 | CTTNBP2NL (UniProt Q9P2B4) | 0.834 | -0.457
115 | SCARB1 (UniProt Q8WTV0) | -1.35 | 2.55
